From US20210002378A1
These are yes or no findings as the source states them, for the method shown. Some results given as binding are weak or reduced against the parent protein; the word gives no strength.

Chains of the proteins cited; added tags and fusions are not shown. Residues count along the entry.
UniProt D3ZZK3, residues 20-547: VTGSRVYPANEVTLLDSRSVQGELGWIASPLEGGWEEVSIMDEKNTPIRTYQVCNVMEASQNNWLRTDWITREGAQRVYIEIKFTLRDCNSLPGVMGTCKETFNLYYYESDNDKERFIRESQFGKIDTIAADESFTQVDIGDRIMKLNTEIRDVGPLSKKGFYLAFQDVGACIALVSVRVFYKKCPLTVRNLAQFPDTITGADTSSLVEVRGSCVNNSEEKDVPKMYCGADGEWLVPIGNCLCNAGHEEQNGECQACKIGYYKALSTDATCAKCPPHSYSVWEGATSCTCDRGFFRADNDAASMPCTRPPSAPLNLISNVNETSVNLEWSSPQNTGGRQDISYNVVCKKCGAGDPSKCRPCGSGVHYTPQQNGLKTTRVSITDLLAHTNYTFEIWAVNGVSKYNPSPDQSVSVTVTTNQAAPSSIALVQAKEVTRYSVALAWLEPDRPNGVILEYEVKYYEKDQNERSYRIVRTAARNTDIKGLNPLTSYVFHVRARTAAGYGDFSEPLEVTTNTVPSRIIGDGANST
UniProt P54764, residues 29-209: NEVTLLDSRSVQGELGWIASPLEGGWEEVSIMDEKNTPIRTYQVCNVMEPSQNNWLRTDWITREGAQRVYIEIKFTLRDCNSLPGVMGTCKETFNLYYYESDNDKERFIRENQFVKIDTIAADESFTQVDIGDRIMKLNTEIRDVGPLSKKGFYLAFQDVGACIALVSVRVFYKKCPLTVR

Columns and labels:
[1] = target: rat EphA4 extracellular region-SEAP-His protein (rat) (UniProt D3ZZK3); experiment: ELISA, EphA4 extracellular region-SEAP-His captured by anti-alkaline phosphatase antibody, antibody titrated to 10 µg/mL
[2] = target: rat EphA4 extracellular region-SEAP-His protein (rat) (UniProt D3ZZK3); experiment: ELISA: EphA4 extracellular region-SEAP-His (1 nM) captured by anti-alkaline phosphatase antibody, antibody B titrated, HRP anti-human IgG, OD 450 nm
[3] = target: rat EphA4 extracellular region-Fc-His protein (rat; human) (UniProt D3ZZK3); experiment: ELISA, EphA4 extracellular region-Fc-His captured by anti-human IgG antibody, antibody titrated to 10 µg/mL
[4] = target: rat EphA4 extracellular region-Fc-His protein (rat; human) (UniProt D3ZZK3); experiment: ELISA: EphA4 extracellular region-Fc-His (1 nM) captured by anti-human IgG antibody, antibody A titrated, HRP anti-mouse IgG, OD 450 nm
[5] = target: EphA4-Ligand Binding Domain (EphA4-LBD) (UniProt P54764); experiment: complex purified by gel filtration and solved by X-ray crystallography

B1: humanized anti-EphA4 monoclonal antibody (antibody B) (antibody, V domains shown)
VH: QVQLVESGGGVVQPGRSLRLSCAVSGFSLTRFGVHWVRQAPGKGLEWVAVIWRGGSTDYNAAFMSRLTISKDNSKNTVYLQMNSLRAEDTAVYYCAKESLFGVYYDYGYYSMDYWGQGTTVTVSS
VL: DIQMTQSPSSLSASVGDRVTITCRASQEISGYLSWLQQKPGKAPKRLIYAASTLDSGVPSRFSGSRSGTEYTLTISSLQPEDFATYYCLQYASYPLTFGGGTKVEIKR
binding [1]: binds | binding [2]: binds

B2: mouse anti-EphA4 monoclonal antibody (antibody A) (antibody, mouse IgG1, kappa, V domains shown)
VH: QVQLKQSGPSLVQPSQSLSITCTVSGFSLTRYGVHWVRQSPGKGLEWLGVIWRGGSTDYNAAFMSRLSITKDNSKSQVFFKMNSLQADDTAIYYCAKESLFGVYYDYGYYSMDYWGQGTSVTVSS
VL: DIQMTQSPSSLSASLGERVSLTCRASQEISGYLSWLQQKPDGTIKRLIYAASTLDSGVPKRFSGSRSGSDYSLTISSLESEDFADYYCLQYASYPLTFGAGTKLELKR
binding [3]: binds | binding [4]: binds

B3: antibody A-Fab (Fab, V domains shown, not shown: a dimerising Fc or GST)
VH: QVQLKQSGPSLVQPSQSLSITCTVSGFSLTRYGVHWVRQSPGKGLEWLGVIWRGGSTDYNAAFMSRLSITKDNSKSQVFFKMNSLQADDTAIYYCAKESLFGVYYDYGYYSMDYWGQGTSVTVSS
VL: DIQMTQSPSSLSASLGERVSLTCRASQEISGYLSWLQQKPDGTIKRLIYAASTLDSGVPKRFSGSRSGSDYSLTISSLESEDFADYYCLQYASYPLTFGAGTKLELKR
binding [5]: binds
